Experimental data published in patent publication US20230088717A1, “NEW IMMUNOSTIMULATORS AND USE THEREOF IN IMMUNOTHERAPY” (NANTES UNIVERSITÉ, priority 2020, published 2023).
At least one structure is not confirmed: it was looked up by name or label, or the drawing left a doubt.

What was measured:
[1] = test system: iNKT cells; assay: iNKT cell activation: cytokine secretion after co-culture with glycolipid-loaded non-transfected (non-CD1d) tumor cells; assay type: cell-based, human
Method: (§1) Classically, CD1d expressing cells are incubated overnight in presence or in the absence of the compound to be assessed, allowing loading on the CD1d molecule. Then, CD1d cells are co-incubated with iNKTs. Six hours of co-culture are sufficient to be able to detect most of the cytokine release (such as IFN-γ, IL-13 and/or IL-2) in the supernatant. Various time of incubation, up to 48H, can be performed depending of the kinetic of some late cytokines (such as IL-10). The quantity or concentration of at least one cytokine is thus measured in the supernatant after an incubation time of from 6 hours to 48 hours. An increased quantity or concentration of at least one cytokine in the presence of the assessed compound by comparison to in its absence means that said compound is a iKNT stimulator.
To analyse ability of 6-PEG3-NHR-GalCer 2 and 6-Mal-PEGn-GalCer 3 to activate iNKTs, several types of presenting cells were used, such as HEK293 or HeLa cells transfected to express CD1d molecule on their membrane. Non-transfected cells were also used as negative control “at first glance” since presentation of glycolipids to iNKT cells is known to be dependent on CD1d.
(§2) These cells were then used as antigen presenting cells (APC) to compare the iNKT cell activation potency of the canonical α-GalCer (KRN7000) ligand to that of the analogue 6″-modified with an aminoPEG linking arm 6-PEG3-NH2-GalCer 2a. APC were loaded with glycolipids after co-incubation at various concentrations overnight. Next day, cells were washed and co-cultured with iNKTs (2 APC for 1 iNKT). After 6 hours, supernatants were collected, and cytokines secretions (IFN-γ and IL-2 for Th1 panel and IL-13 for Th2 panel) was measured by ELISA (FIGS. 2 and 3)
To confirm this discovery, various other colon, lung, embryonic kidney, cervical cancer cells lines were screened by RT-PCR to define those that express small levels of CD1d and to confirm their ability to self-present the new potent iNKT agonist (see Table 6).
(§3) 6-PEG3-NHR-GalCer analogues of 6-PEG3-NH2-GalCer 2a were evaluated on transfected CD1d and non-CD1d Hela and HEK293 cells for secretion of INF-γ and IL13 stimulation (see FIGS. 10 and 11).

[2] = test system: iNKT cells; assay: iNKT cell activation: cytokine secretion (ELISA) after co-culture with glycolipid-loaded CD1d-transfected HEK293 or HeLa cells; assay type: cell-based, human; conditions: HeLa CD1d transfected cells (FIG. 10)
Method: as §1, with “stimulator. […]” for “stimulator.”
as §2, with “APC were loaded with glycolipids after co-incubation at various concentrations overnight. Next day, cells were washed and co-cultured with iNKTs (2 APC for 1 iNKT).” left out
as §3

**Q.** For CCCCCCCCCCCCCCCCCCCCCCCCCC(=O)N[C@@H](CO[C@H]1O[C@H](CO)[C@H](O)[C@H](O)[C@H]1O)[C@H](O)[C@H](O)CCCCCCCCCCCCCC [KRN7000], which “IFN-γ secretion 10^−7M” value ([1]; HCT116 (colon) as presenting cells, 10^−7M) is on record?
**A.** NO

**Q.** What about the “IFN-γ secretion 10^−7M” value ([1]; HT29 (colon) as presenting cells, 10^−7M) of the same molecule?
**A.** NO

**Q.** And the “IFN-γ secretion 10^−7M” value ([1]; SW480 (colon) as presenting cells, glycolipid 10^−7M)?
**A.** NO

**Q.** What about the “IFN-γ secretion 10^−7M” value ([1]; SW620 (colon, metastatic site: lymph node) as presenting cells, 10^−7M) of the same molecule?
**A.** NO

**Q.** And the “Log IC50 for IFN-γ” value [2]?
**A.** −8.8
